Laboratory results from article PMC12516554.
No constants are given. Whether binding was seen depends on the method and setting. Binding seen in cells or lysates may run through a third protein. Some binding calls cover weakened binding; strength is not graded here.

By UniProt entry, the sequences of proteins in these tests, tags left out.
UniProt Q16665: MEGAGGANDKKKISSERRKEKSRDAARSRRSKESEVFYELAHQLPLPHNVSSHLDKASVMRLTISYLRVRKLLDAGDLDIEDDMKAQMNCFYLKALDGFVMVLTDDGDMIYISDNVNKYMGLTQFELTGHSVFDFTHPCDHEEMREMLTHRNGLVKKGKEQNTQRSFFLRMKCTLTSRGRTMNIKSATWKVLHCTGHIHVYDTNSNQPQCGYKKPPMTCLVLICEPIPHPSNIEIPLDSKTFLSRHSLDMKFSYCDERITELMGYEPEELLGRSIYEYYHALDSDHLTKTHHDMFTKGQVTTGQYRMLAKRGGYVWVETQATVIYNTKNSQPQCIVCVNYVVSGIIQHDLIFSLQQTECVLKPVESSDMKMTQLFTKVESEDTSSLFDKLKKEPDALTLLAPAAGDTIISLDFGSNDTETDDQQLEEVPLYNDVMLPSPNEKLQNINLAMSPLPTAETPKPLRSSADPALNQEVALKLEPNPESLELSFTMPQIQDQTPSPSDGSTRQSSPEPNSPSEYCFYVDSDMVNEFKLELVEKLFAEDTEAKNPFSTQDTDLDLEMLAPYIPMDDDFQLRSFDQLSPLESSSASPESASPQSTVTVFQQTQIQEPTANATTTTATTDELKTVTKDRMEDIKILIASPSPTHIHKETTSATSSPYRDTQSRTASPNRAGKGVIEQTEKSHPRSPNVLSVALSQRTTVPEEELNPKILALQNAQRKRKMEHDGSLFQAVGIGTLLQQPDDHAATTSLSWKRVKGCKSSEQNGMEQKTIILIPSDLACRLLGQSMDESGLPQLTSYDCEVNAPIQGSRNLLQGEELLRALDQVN

Molecular target: T1, Zinc finger MYND-type containing 8 (human (endogenous in MCF7)) (UniProt Q9ULU4)
T1 sequence: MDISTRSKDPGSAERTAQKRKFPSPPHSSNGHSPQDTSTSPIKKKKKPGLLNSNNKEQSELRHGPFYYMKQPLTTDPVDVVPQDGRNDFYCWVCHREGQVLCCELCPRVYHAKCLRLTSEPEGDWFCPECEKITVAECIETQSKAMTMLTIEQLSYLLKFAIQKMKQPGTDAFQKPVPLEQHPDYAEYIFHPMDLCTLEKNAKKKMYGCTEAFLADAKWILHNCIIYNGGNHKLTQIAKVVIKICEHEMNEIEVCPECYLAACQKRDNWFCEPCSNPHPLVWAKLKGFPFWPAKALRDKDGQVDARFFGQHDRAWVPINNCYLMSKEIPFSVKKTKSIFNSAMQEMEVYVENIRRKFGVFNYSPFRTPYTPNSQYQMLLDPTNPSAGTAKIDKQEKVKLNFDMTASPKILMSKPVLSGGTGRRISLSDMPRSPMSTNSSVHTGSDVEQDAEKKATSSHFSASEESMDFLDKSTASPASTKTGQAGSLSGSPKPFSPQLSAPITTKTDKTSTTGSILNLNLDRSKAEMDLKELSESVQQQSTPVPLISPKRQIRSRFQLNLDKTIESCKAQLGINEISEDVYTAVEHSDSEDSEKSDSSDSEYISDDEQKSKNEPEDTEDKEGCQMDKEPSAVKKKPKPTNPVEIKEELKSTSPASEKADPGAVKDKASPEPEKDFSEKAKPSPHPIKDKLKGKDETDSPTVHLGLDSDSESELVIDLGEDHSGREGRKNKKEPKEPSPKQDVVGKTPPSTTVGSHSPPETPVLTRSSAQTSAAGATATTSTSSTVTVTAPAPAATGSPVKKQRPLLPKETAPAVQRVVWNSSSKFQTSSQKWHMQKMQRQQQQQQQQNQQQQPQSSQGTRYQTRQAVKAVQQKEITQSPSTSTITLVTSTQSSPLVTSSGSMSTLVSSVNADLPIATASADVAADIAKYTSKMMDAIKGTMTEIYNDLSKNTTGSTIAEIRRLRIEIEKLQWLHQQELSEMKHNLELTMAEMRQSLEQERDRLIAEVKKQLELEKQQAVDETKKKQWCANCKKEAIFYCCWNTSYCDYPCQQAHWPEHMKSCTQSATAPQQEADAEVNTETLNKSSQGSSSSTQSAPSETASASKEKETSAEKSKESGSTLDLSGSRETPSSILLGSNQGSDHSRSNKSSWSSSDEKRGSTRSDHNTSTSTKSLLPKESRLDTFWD
Experiment: co-IP; immunoprecipitation with anti-ZMYND8 antibody from RIPA lysates of hypoxia-treated MCF7 cells (precleared; beads washed three times with RIPA buffer); western blot

binding: binds
Substance: hypoxia-inducible factor 1-α (from UniProt Q16665 1-826)
